# Reference: the supplement of paper PMC10338343
# ± gives the standard deviation. This is a selection; strong and weak results do not stand in their true shares. The uncertainty is large for many entries.
# Test system: MIWI (PIWIL1) piRISC loaded with piRNA #1 (30 nt)
# Experiment: pre-steady-state target cleavage rate (min^-1); MIWI and MILI are mouse PIWI proteins and EfPiwi is from a freshwater sponge; tags in brackets are library labels; higher = faster piRNA-guided slicing of the target
# Settings: guide: piRNA #1 5'p-UGAGGUAGUAGGUUGUAUAGUAUCCAGAGG; auxiliary factor: 500 nM mouse GTSF1
# Outline: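 Active affinity-purified piRISC (1 nM) loaded with one synthetic guide was mixed with a transcribed, DNA-blocked target RNA library (0.1 nM), with or without 500 nM GTSF1 partner protein, in HEPES–potassium acetate buffer at 33 °C for 0–8 or 0–960 min. Uncleaved targets were sequenced, normalised to depth and to weakly complementary targets, and pooled across three trials, with k3 capped at 0.0001 min^-1. The pre-steady-state cleavage rate was determined with a burst-and-steady-state fit.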
row,Sequence,pre-steady-state target cleavage rate
1,GCUCUGGAUAGUAUACUACCUACUACCUCA,0.858 ± 0.049
2,CCUCAGGAUUCUAUACAACCUACUACCUCA,2.24 ± 0.13
3,GGUCUGGUUACUUUACAACCUACUACCUCA,1.69 ± 0.13
4,GGAGACCUAUGAUAUGUUCCUUCUACCUGA,0.000282 ± 0.013
5,GGAGACCUAUGAUAACAACCUACUACCUCCA,0.00127 ± 0.0037
6,GGUCUGGAAACUAUUCAACCUACUACCUCA,1.58 ± 0.096
7,GGUCUGGAUACUAUACAACCUACACCUCA,0.000445 ± 0.0053
8,GGAGUGGAUACUAUACUACCUACUACCUGA,0.329 ± 0.052
9,GGAGUGCAUAGUAUACAACCUACUACCUCA,0.659 ± 0.04
10,CCUCUGGAUACUAUCAACCUACUACCUCA,1.82 ± 0.12
11,GGAGACCUAUGAUAAAACCUACUACCUCA,0.000638 ± 0.0047
12,GCUCAGGAUACUAUACAUCCUACUACCUCA,1.85 ± 0.099
13,GGAGACCUAUGUUUACAACCUACAACCUCA,0.00129 ± 0.003
14,GGUGCUGGAUACUAUACAACCUACUACCUCA,1.85 ± 0.11
15,GGACUGGAUACUAUACAACCUACUAGCUGA,0.000451 ± 0.0071
16,GGUCUGGAUACUAUACAACCUACAACGUCA,0.00169 ± 0.0036
17,GGAGUGGAUACUAUACAACCUAUACCUCA,0.000944 ± 0.0065
18,GGUCUGGAUACUAUACAACCAUACUACCUCA,0.00223 ± 0.0038
19,GGUCCUGGAUACUAUACAACCUACUACCUCA,1.97 ± 0.099
20,GGAGACCUUACUAUACAACCUACUACCCCA,0.956 ± 0.086

# A different layout for part of the listing above.
row | Sequence | pre-steady-state target cleavage rate
10 | CCUCUGGAUACUAUCAACCUACUACCUCA | 1.82 ± 0.12
11 | GGAGACCUAUGAUAAAACCUACUACCUCA | 0.000638 ± 0.0047

# Continuation:

row,Sequence,pre-steady-state target cleavage rate
1,CCUCUGGAUACUAUACAACCUACUCCUCA,0.105 ± 0.022
2,CCUCUGGAUACGAUACAACCUACUACCUCA,2.07 ± 0.11
3,GGACUGGAUAUUAUACAACCUACUACCUCA,1.62 ± 0.11
4,GGAGACCUAUGAAUAGAACCUACUACCUCA,0.000298 ± 0.0085
5,GGAGACCUAUGUAUUCAACCUACAACCUCA,0.000279 ± 0.0089
6,GGAGACGAUACAAUACAACCUACUACCUCA,1.29 ± 0.097
7,GGACUGGAUACUUAUCAACCUACUACCUCA,0.719 ± 0.1
8,CCUCUGCAUACUAUACAACCUACUACCACA,2.37 ± 0.19
9,GGAGACCUAUGUAUUCAUCCUACUACCUCA,0.00074 ± 0.0036
10,CCUCUGGUUACUUUACAACCUACUACCUCA,2.24 ± 0.16
11,GCUCUGGAAACUAUACAACCUACUACCACA,1.42 ± 0.15
12,GGAGAGGAUACUAUACAACACUACUACCUCA,0.000142 ± 0.028
13,GCCUGGAUACUAUACAACCUACUACCUCA,1.87 ± 0.11
14,GGACUGGAUACUAUACUAACCUACUACCUCA,0.000131 ± 0.034
15,GGACUGGAUACUAUACAACCUAUUACCUCA,0.86 ± 0.075
16,CCUGACGAUACUAUACAACCUACUACCUCA,2.06 ± 0.12
17,GGAGACCUAUGAAUACAAGCUACAACCUCA,0.000326 ± 0.0086
18,GCUCUGGAUACUAUACAACCUACUACCUCU [g2:g29:cont:t1U],2.16 ± 0.13
19,GGAGACCUAUCUAUACAACCAAGUACCUCA,0.00191 ± 0.0034
20,GGAGUGGAUACUUUACAACCUACUACCUCA,1.53 ± 0.086
